Laboratory results: patent publication US10315990B2, “Isothiocyanate compounds and isothiocyanate XPO1 protein inhibitor drugs thereof” (DRIVINGFORCE THERAPEUTICS Co., Ltd., priority 2015, dated 2019)
Some of these results come from one statement about several compounds together.

Assay: Safety testing via oral administration, 6 weeks
Format: in vivo
Conditions: intragastric, 6 weeks continuously, male and female SD rats
Procedure: The compound solution was intragastrically administrated to 6-week-old male and female SD rats (I-01: 500 mg/kg/day; I-03: 500 mg/kg/day; I-04: 500 mg/kg/day, I-06: 500 mg/kg/day, I-11: 300 mg/kg/day) for 6 weeks continuously (n=10 per group).

Structure (SMILES)	nontoxic dose
[O-][S+](/C=C/CCN=C=S)c1ccccc1 (stereo not shown) [Compound I-01]	at least 500 mg/kg/day
[O-][S+](/C=C/CCN=C=S)c1ccc(Cl)c(C(F)(F)F)c1 (stereo not shown) [Compound I-03]	at least 500 mg/kg/day
[O-][S+](/C=C/CCN=C=S)c1cc(C(F)(F)F)cc(C(F)(F)F)c1 (stereo not shown) [Compound I-04]	at least 500 mg/kg/day
COc1cc([S+]([O-])/C=C/CCN=C=S)cc(OC)c1OC (stereo not shown) [Compound I-06]	at least 500 mg/kg/day
